Measured values taken from PMC11633172.
These are yes or no findings as the source states them, for the method shown. For part of these data: A result given as binding can be weak or reduced; the word gives no strength. Sequences can lack the tags named with a protein. For part of these data: Binding seen in cells or lysates may run through a third protein. Values belong to the molecule of their own block, whether it stands above or below them.

How the values were obtained:
[1] = target: T1, GST-tagged full-length EIN_066100 (Entamoeba invadens); assay: pull-down; GST-tagged bait from 250 µg bacterial lysate immobilised on glutathione beads and washed; 500 µg whole-cell amoebic lysate with Myc-tagged prey added, 1 h at 4°C; washed with IP-wash buffer; western blot with anti-Myc antibody; only the target purified
T1 sequence: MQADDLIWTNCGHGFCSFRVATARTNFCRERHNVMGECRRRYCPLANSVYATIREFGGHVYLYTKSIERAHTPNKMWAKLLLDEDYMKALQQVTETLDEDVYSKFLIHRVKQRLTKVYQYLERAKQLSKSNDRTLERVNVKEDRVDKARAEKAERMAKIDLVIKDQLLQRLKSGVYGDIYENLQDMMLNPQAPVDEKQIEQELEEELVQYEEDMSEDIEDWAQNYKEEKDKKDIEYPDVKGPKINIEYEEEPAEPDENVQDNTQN

[2] = target: GST-EIN_085620∆C (Entamoeba invadens); assay: as above
[3] = target: GST-EIN_085620∆N (Entamoeba invadens); assay: as above
[4] = target: GST-tagged full-length EIN_085620 (Entamoeba invadens); assay: as above
[5] = target: GST-tagged full-length EIN_085620 (Entamoeba invadens); assay: pull-down; GST-tagged EIN_085620 as bait on glutathione beads incubated with purified His-EIN_066100 as prey; western blot with anti-His-tag and anti-GST antibodies; both purified

binding [1]: no binding
Molecule: Myc-tagged ERM-BP (EIN_083100) (Entamoeba invadens)

binding [1]: binds weakly
Molecule: Myc-tagged EIN_085620 (Entamoeba invadens)

binding [2]: binds
binding [3]: no binding
binding [4]: binds
B1: Myc-tagged EIN_066100 (protein, UniProt A0A0A1TXQ0 1-265)
chain: MQADDLIWTNCGHGFCSFRVATARTNFCRERHNVMGECRRRYCPLANSVYATIREFGGHVYLYTKSIERAHTPNKMWAKLLLDEDYMKALQQVTETLDEDVYSKFLIHRVKQRLTKVYQYLERAKQLSKSNDRTLERVNVKEDRVDKARAEKAERMAKIDLVIKDQLLQRLKSGVYGDIYENLQDMMLNPQAPVDEKQIEQELEEELVQYEEDMSEDIEDWAQNYKEEKDKKDIEYPDVKGPKINIEYEEEPAEPDENVQDNTQN

binding [5]: binds
B2: His-EIN_066100 FL (protein, UniProt A0A0A1TXQ0 1-265)
chain: MQADDLIWTNCGHGFCSFRVATARTNFCRERHNVMGECRRRYCPLANSVYATIREFGGHVYLYTKSIERAHTPNKMWAKLLLDEDYMKALQQVTETLDEDVYSKFLIHRVKQRLTKVYQYLERAKQLSKSNDRTLERVNVKEDRVDKARAEKAERMAKIDLVIKDQLLQRLKSGVYGDIYENLQDMMLNPQAPVDEKQIEQELEEELVQYEEDMSEDIEDWAQNYKEEKDKKDIEYPDVKGPKINIEYEEEPAEPDENVQDNTQN
